Results published in PubChem BioAssay AID256 (DTP/NCI, 2004).
The list shows only some results of the screen, not a fair sample: it gathers tests that were run many times, whatever their T/C, doses with no T/C, and many T/C values between a quarter and a half above the control. Other doses and runs of a compound stand elsewhere. T/C is the treated group as % of the vehicle group. Some doses have a count of surviving animals in place of a T/C: the source files T/C as zero there, which appears to mark a toxic dose or a test without result, not a measured value. Some survivor counts are full or nearly so, which does not show that the dose was tolerated: survival well below the control is almost never listed, so the zero probably covers shortened survival too. Survivors were counted at the toxicity check, usually on the fifth day, unless a day is given; later deaths do not show. Schedules are NCI's codes, taken here to give the interval after Q, in days (D) or hours (H), and the number of doses after X. Some doses were run more than once; the results are listed from low to high. Where survival is the endpoint, this PubChem deposit counts one and a half times the control or more as active, and values a quarter to a half above the control carry no call in these data; other NCI protocols may use other cut-offs. Some T/C values are followed by the survivors on the day toxicity was checked, most often the fifth; without a count, all were alive then.

Test system: CD2F1 mice, L1210 leukemia ip, survival T/C
Assay: NCI In Vivo Anticancer Drug Screen. Data for tumor model L1210 Leukemia (intraperitoneal) in CD2F1 (CDF1) mice
Settings: higher T/C = longer survival
How it was run: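 Each value reflects a quotient of treated over vehicle control outcomes in mice with a transplanted tumor.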

[1] = T/C endpoint: mean survival time, dose: 100.0 mg/kg/injection, schedule: Q04DX002 (ip), vehicle: saline with Tween-80
[2] = T/C endpoint: mean survival time, dose: 400.0 mg/kg/injection, schedule: Q01DX009 (ip), vehicle: other
[3] = T/C endpoint: mean survival time, dose: 50.0 mg/kg/injection, schedule: Q01DX009 (ip), vehicle: saline with Tween-80
[4] = T/C endpoint: mean survival time, dose: 100.0 mg/kg/injection, schedule: Q01DX009 (ip), vehicle: saline
[5] = T/C endpoint: mean survival time, dose: 400.0 mg/kg/injection, schedule: Q01DX009 (ip), vehicle: saline with Tween-80
[6] = T/C endpoint: mean survival time, dose: 400.0 mg/kg/injection, schedule: Q01DX009 (ip), vehicle: saline
[7] = T/C endpoint: mean survival time, dose: 200.0 mg/kg/injection, schedule: Q04DX002 (ip), vehicle: saline with Tween-80
[8] = T/C endpoint: mean survival time, dose: 400.0 mg/kg/injection, schedule: Q04DX002 (ip), vehicle: saline with Tween-80
[9] = T/C endpoint: mean survival time, dose: 100.0 mg/kg/injection, schedule: Q04DX003 (ip), vehicle: saline with Tween-80
[10] = T/C endpoint: mean survival time, dose: 200.0 mg/kg/injection, schedule: Q04DX003 (ip), vehicle: saline with Tween-80
[11] = T/C endpoint: mean survival time, dose: 400.0 mg/kg/injection, schedule: Q04DX003 (ip), vehicle: saline with Tween-80
[12] = T/C endpoint: mean survival time, dose: 200.0 mg/kg/injection, schedule: Q01DX009 (ip), vehicle: saline with Tween-80
[13] = T/C endpoint: mean survival time, dose: 400.0 mg/kg/injection, schedule: Q01DX001 (ip), vehicle: saline with Tween-80

## CC1OC(OC2CC(O)(C(=O)CO)Cc3c(O)c4c(c(O)c32)C(=O)c2ccccc2C4=O)CC(N)C1O (stereo unspecified)
T/C endpoint: mean survival time, dose: 0.06 mg/kg/injection, schedule: Q01DX009 (ip), vehicle: water
  T/C: 125 and 131 % of control
T/C endpoint: mean survival time, dose: 0.13 mg/kg/injection, schedule: Q01DX009 (ip), vehicle: water
  T/C: 142 % of control
T/C endpoint: mean survival time, dose: 0.25 mg/kg/injection, schedule: Q01DX009 (ip), vehicle: water
  T/C: 145 % of control
T/C endpoint: mean survival time, dose: 1.0 mg/kg/injection, schedule: Q01DX009 (ip), vehicle: water
  survivor count: 5 of 6

## O=C(Nc1ccccc1)OCCc1c2ccccc2nc2ccccc12
[1]
  survivor count: 3 of 3

## Clc1ncnc2c1ncn2C1CCCCO1 (stereo unspecified)
T/C endpoint: mean survival time, dose: 264.0 mg/kg/injection, schedule: Q01DX009 (ip), vehicle: other
  T/C: 137 % of control [5 of 6 alive]
[2]
  T/C: 139 % of control

## COC(=O)Nc1nc2ccc(C3(c4ccc(F)cc4)OCCO3)cc2[nH]1
T/C endpoint: mean survival time, dose: 12.5 mg/kg/injection, schedule: Q01DX009 (ip), vehicle: saline
  T/C: 125 % of control
T/C endpoint: mean survival time, dose: 25.0 mg/kg/injection, schedule: Q01DX009 (ip), vehicle: saline
  T/C: 126 and 135 % of control
[3]
  T/C: 147 % of control
T/C endpoint: mean survival time, dose: 70.0 mg/kg/injection, schedule: Q04DX003 (ip), vehicle: saline
  T/C: 141 % of control [4 of 6 alive]
T/C endpoint: mean survival time, dose: 80.0 mg/kg/injection, schedule: Q04DX003 (ip), vehicle: saline
  T/C: 132 % of control [5 of 6 alive]
T/C endpoint: mean survival time, dose: 100.0 mg/kg/injection, schedule: Q01DX009 (ip), vehicle: saline with Tween-80
  T/C: 141 % of control
[4]
  survivor count: 6 of 6
T/C endpoint: mean survival time, dose: 100.0 mg/kg/injection, schedule: Q01DX009 (oral), vehicle: saline
  T/C: 132 % of control
T/C endpoint: mean survival time, dose: 200.0 mg/kg/injection, schedule: Q01DX009 (ip), vehicle: saline
  survivor count: 0 of 6 and 2 of 6
[5]
  survivor count: 4 of 10
[6]
  survivor count: 0 of 6

## Nc1ccn(C2OC(CO)C(O)C2Br)c(=O)n1 (stereo unspecified)
T/C endpoint: median survival time, dose: 100.0 mg/kg/injection, schedule: Q01DX005 (ip), vehicle: Klucel (hydroxypropylcellulose) (HPC)
  T/C: 130 % of control
T/C endpoint: median survival time, dose: 100.0 mg/kg/injection, schedule: Q01DX005 (ip), vehicle: saline
  T/C: 138 % of control
T/C endpoint: median survival time, dose: 200.0 mg/kg/injection, schedule: Q01DX005 (ip), vehicle: Klucel (hydroxypropylcellulose) (HPC)
  T/C: 138 % of control
T/C endpoint: median survival time, dose: 400.0 mg/kg/injection, schedule: Q01DX005 (ip), vehicle: Klucel (hydroxypropylcellulose) (HPC)
  T/C: 142 % of control

## NC(CSS(=O)(=O)O)=NCC1CCCCC1
T/C endpoint: mean survival time, dose: 25.0 mg/kg/injection, schedule: Q04DX002 (ip), vehicle: saline with Tween-80
  T/C: 125 % of control
T/C endpoint: mean survival time, dose: 50.0 mg/kg/injection, schedule: Q04DX002 (ip), vehicle: saline with Tween-80
  survivor count: 0 of 3
[1]
  survivor count: 0 of 3
[7]
  survivor count: 0 of 3
[8]
  survivor count: 0 of 3

## O=c1[nH]c2c(ccc3cnccc32)c2c1CCC2
[4]
  survivor count: 2 of 6 and 3 of 6

## CC(=O)Nc1cccc(N=NN(C)C)c1
T/C endpoint: mean survival time, dose: 25.0 mg/kg/injection, schedule: Q01DX009 (ip), vehicle: Klucel (hydroxypropylcellulose) (HPC)
  T/C: 134 % of control [9 of 10 alive]
T/C endpoint: mean survival time, dose: 50.0 mg/kg/injection, schedule: Q01DX009 (ip), vehicle: Klucel (hydroxypropylcellulose) (HPC)
  T/C: 140 % of control
T/C endpoint: mean survival time, dose: 200.0 mg/kg/injection, schedule: Q01DX009 (ip), vehicle: Klucel (hydroxypropylcellulose) (HPC)
  survivor count: 0 of 6
T/C endpoint: mean survival time, dose: 400.0 mg/kg/injection, schedule: Q01DX009 (ip), vehicle: Klucel (hydroxypropylcellulose) (HPC)
  survivor count: 0 of 6

## O=C(O)c1ccc2cc(O)ccc2c1
[6]
  survivor count: 3 of 6

## Clc1ccc(C[P+](c2ccccc2)(c2ccccc2)c2ccccc2)c(Cl)c1
T/C endpoint: mean survival time, dose: 10.0 mg/kg/injection, schedule: Q01DX009 (ip), vehicle: saline sonified
  survivor count: 3 of 6
T/C endpoint: mean survival time, dose: 20.0 mg/kg/injection, schedule: Q01DX009 (ip), vehicle: saline sonified
  survivor count: 2 of 6
T/C endpoint: mean survival time, dose: 50.0 mg/kg/injection, schedule: Q04DX003 (ip), vehicle: saline with Tween-80
  survivor count: 0 of 6
T/C endpoint: mean survival time, dose: 75.0 mg/kg/injection, schedule: Q01DX001 (ip), vehicle: water
  survivor count: 0 of 6
[9]
  survivor count: 0 of 6
T/C endpoint: mean survival time, dose: 150.0 mg/kg/injection, schedule: Q01DX001 (ip), vehicle: water
  survivor count: 0 of 6
[10]
  survivor count: 0 of 6
T/C endpoint: mean survival time, dose: 300.0 mg/kg/injection, schedule: Q01DX001 (ip), vehicle: water
  survivor count: 0 of 6
[11]
  survivor count: 0 of 6

## Cc1cc(S(=O)(=O)F)cc(Cl)c1S
[7]
  survivor count: 1 of 3
[8]
  survivor count: 0 of 3

## CCCCN1C(=O)C(=O)N(c2ccc(S(N)(=O)=O)cc2)C1=O
[12]
  survivor count: 0 of 3

## O=C1C(NCC(O)CO)=C(N2CC2)C(=O)C(NCC(O)CO)=C1N1CC1 (stereo unspecified)
T/C endpoint: mean survival time, dose: 2.5 mg/kg/injection, schedule: Q01DX009 (oral), vehicle: saline
  survivor count: 3 of 6
T/C endpoint: mean survival time, dose: 5.0 mg/kg/injection, schedule: Q01DX009 (oral), vehicle: saline
  survivor count: 3 of 5 and 6 of 6
T/C endpoint: mean survival time, dose: 10.0 mg/kg/injection, schedule: Q01DX009 (oral), vehicle: saline
  survivor count: 6 of 6
T/C endpoint: median survival time, dose: 1.0 mg/kg/injection, schedule: Q01DX009 (ip), vehicle: saline
  T/C: 148 % of control
T/C endpoint: median survival time, dose: 16.0 mg/kg/injection, schedule: Q01DX009 (ip), vehicle: saline
  survivor count: 9 of 10

## COc1ccc(Cc2nnc(Cc3ccc(OC)c(OC)c3)nn2)cc1OC
[11]
  survivor count: 6 of 6

## CCOC(=O)N1CCc2cc(OC)c(OC)cc2C1=C(c1ccccc1)c1ccccc1
[10]
  survivor count: 6 of 6

## O=C(O)CCN1CCCc2ccccc21
[2]
  survivor count: 0 of 6

## O=C(NS(=O)(=O)c1ccc(Cl)cc1)OCCCl
[5]
  survivor count: 3 of 6

## CC(O)Cc1c(Cc2ccccc2)nc(-c2ccccc2)[nH]c1=O (stereo unspecified)
[12]
  survivor count: 6 of 6

## CCOC(=O)C1C2OC(=O)C(C(=O)C2CN(CCCl)CCCl)C1C1CC=C(CC2=CCC(C3C4C(=O)OC(C(CN(CCCl)CCCl)C4=O)C3C(=O)OCC)CC2)CC1 (stereo unspecified)
T/C endpoint: mean survival time, dose: 12.5 mg/kg/injection, schedule: Q01DX009 (ip), vehicle: Klucel (hydroxypropylcellulose) (HPC)
  T/C: 125 % of control
T/C endpoint: mean survival time, dose: 25.0 mg/kg/injection, schedule: Q01DX009 (ip), vehicle: Klucel (hydroxypropylcellulose) (HPC), evaluated on day 30
  T/C: 137 % of control
T/C endpoint: mean survival time, dose: 25.0 mg/kg/injection, schedule: Q01DX009 (ip), vehicle: Klucel (hydroxypropylcellulose) (HPC), evaluated on day 60
  T/C: 135 % of control

## Cc1cccc(C(=O)C=C(C(F)(F)F)C(F)(F)F)c1
[3]
  survivor count: 6 of 6

## O=C(O)C(S)C(S)C(=O)O.[As] (stereo unspecified)
T/C endpoint: mean survival time, dose: 200.0 mg/kg/injection, schedule: Q01DX001 (ip), vehicle: saline
  survivor count: 0 of 6
T/C endpoint: mean survival time, dose: 400.0 mg/kg/injection, schedule: Q01DX001 (ip), vehicle: saline
  survivor count: 0 of 6

## O=C1CSC(=S)N1/N=C/c1ccc(Cl)s1
T/C endpoint: mean survival time, dose: 150.0 mg/kg/injection, schedule: Q01DX001 (ip), vehicle: other
  survivor count: 3 of 6
T/C endpoint: mean survival time, dose: 300.0 mg/kg/injection, schedule: Q01DX001 (ip), vehicle: other
  survivor count: 0 of 6

## CC1=CC(c2ccccc2)(c2ccccc2)c2ccccc21
[13]
  survivor count: 6 of 6

## c1ccc2c(c1)-c1ccccc1C1NC21 (stereo unspecified)
T/C endpoint: median survival time, dose: 50.0 mg/kg/injection, schedule: Q01DX009 (ip), vehicle: saline with Tween-80
  survivor count: 5 of 6
T/C endpoint: median survival time, dose: 100.0 mg/kg/injection, schedule: Q01DX009 (ip), vehicle: saline with Tween-80
  survivor count: 0 of 6

## CN(Cc1ccc(Cl)cc1)N=Nc1ccc(C(=O)O)cc1
[2]
  survivor count: 1 of 3

## Cc1ccc[n+](CCc2c[nH]c3ccccc23)c1
[9]
  survivor count: 6 of 6

## O=C1N(C2CCCCC2)CC2C(c3cccnc3)NNC12O (stereo unspecified)
[13]
  survivor count: 6 of 6

## O=C1N=C(Oc2ccccc2)SC1=O
[12]
  survivor count: 2 of 6
[5]
  survivor count: 0 of 6
